# In patent US20250352587A1, “PROBIOTIC AND USE THEREOF” (priority 2023, published 2025):
# At least one compound was matched to its structure with a doubt left.
# Key:
# TNF-α = assay: In vitro cell inflammation inhibition test, TNF-α ELISA in THP-1 macrophages; assay type: cell-based, Human; conditions: LPS/IFN-γ stimulated THP-1 macrophages, 24 h, compared with the model group; FIG. 5
# IL-6 = assay: In vitro cell inflammation inhibition test, IL-6 ELISA in THP-1 macrophages; assay type: cell-based, Human; conditions: LPS/IFN-γ stimulated THP-1 macrophages, 24 h, compared with the model group; FIG. 5
compound,measurement,setting,value
C[C@@H]1C[C@H]2[C@@H]3CCC4=CC(=O)C=C[C@]4(C)[C@@]3(F)[C@@H](O)C[C@]2(C)[C@@]1(O)C(=O)CO [dexamethasone],expression of pro-inflammatory factor TNF-α,TNF-α,significantly inhibit
same,expression of pro-inflammatory factor IL-6,IL-6,significantly inhibit
